For 38 targets, log2 fold change results are on record in the supplement of paper PMC10849652.

The chains behind the UniProt entries cited, without tags or fusion partners. Where a name states a change or a piece, a line headed by the entry shows the natural chain unless it says otherwise.
UniProt Q9UIM3: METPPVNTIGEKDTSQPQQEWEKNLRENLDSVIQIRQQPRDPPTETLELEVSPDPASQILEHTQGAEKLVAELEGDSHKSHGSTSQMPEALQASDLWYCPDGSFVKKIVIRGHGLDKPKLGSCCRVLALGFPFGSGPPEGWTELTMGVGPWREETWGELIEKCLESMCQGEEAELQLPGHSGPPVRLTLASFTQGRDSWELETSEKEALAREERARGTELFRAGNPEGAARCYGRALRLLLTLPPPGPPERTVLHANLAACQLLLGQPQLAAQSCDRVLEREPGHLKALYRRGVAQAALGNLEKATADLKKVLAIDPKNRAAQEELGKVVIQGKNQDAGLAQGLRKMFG
UniProt Q8NB91: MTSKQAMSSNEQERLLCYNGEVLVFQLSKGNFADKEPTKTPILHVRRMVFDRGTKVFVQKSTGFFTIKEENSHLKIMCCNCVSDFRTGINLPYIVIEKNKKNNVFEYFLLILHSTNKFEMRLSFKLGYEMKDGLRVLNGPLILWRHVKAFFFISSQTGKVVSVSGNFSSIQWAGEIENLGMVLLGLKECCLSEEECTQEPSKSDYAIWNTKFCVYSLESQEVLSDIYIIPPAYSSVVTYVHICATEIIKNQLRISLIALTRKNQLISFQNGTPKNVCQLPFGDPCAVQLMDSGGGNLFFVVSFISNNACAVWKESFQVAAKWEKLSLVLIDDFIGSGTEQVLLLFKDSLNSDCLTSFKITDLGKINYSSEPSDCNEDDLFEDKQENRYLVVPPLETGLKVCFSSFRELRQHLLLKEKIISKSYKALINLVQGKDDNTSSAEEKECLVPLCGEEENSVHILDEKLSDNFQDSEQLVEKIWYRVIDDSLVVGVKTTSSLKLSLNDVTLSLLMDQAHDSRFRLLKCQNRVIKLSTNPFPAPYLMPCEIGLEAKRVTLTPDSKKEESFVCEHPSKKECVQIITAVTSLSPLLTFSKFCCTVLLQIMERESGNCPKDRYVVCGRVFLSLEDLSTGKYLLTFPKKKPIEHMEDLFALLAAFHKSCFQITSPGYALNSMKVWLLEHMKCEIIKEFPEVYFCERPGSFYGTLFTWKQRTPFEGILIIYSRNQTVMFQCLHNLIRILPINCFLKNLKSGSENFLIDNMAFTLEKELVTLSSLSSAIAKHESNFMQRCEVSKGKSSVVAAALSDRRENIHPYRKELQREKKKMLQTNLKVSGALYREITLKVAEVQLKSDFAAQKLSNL
UniProt Q9NUQ9: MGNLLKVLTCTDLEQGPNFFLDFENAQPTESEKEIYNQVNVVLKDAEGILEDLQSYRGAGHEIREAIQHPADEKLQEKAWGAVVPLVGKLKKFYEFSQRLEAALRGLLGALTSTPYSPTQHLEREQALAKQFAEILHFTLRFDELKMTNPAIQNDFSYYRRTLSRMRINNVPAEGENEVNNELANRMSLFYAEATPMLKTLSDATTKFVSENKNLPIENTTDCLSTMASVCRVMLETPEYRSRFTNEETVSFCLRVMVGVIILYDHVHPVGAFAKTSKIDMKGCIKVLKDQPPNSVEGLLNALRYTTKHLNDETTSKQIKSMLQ
UniProt Q96ND0: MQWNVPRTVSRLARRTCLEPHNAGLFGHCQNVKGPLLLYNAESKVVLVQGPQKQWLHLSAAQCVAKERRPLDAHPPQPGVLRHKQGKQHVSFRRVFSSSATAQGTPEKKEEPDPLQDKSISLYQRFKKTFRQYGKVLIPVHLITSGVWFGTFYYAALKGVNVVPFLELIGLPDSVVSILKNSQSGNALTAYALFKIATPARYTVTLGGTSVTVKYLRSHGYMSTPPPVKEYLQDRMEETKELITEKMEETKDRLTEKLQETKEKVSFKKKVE
UniProt Q8TB52: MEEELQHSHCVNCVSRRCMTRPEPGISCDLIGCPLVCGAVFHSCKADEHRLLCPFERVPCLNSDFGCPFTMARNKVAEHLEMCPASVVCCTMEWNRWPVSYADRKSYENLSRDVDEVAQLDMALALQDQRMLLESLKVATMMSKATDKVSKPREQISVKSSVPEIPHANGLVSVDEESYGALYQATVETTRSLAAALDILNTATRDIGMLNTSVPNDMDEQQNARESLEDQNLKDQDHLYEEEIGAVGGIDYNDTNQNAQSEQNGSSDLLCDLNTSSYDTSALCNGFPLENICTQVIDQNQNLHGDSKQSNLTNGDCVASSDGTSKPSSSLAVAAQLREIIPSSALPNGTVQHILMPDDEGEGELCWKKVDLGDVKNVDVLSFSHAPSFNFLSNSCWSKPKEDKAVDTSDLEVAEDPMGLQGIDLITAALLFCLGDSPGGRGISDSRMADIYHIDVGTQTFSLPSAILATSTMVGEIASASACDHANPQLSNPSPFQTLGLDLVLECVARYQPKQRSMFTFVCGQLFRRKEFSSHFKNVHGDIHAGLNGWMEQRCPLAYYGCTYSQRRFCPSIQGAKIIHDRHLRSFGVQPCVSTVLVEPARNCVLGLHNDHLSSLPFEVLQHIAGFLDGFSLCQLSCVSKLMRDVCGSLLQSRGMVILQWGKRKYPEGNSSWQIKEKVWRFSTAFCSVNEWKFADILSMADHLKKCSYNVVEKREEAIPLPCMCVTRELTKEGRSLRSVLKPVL
UniProt P26885: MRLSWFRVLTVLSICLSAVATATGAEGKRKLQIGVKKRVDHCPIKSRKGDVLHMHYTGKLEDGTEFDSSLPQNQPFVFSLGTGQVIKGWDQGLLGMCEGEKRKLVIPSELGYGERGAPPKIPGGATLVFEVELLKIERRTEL
UniProt Q8WVX9: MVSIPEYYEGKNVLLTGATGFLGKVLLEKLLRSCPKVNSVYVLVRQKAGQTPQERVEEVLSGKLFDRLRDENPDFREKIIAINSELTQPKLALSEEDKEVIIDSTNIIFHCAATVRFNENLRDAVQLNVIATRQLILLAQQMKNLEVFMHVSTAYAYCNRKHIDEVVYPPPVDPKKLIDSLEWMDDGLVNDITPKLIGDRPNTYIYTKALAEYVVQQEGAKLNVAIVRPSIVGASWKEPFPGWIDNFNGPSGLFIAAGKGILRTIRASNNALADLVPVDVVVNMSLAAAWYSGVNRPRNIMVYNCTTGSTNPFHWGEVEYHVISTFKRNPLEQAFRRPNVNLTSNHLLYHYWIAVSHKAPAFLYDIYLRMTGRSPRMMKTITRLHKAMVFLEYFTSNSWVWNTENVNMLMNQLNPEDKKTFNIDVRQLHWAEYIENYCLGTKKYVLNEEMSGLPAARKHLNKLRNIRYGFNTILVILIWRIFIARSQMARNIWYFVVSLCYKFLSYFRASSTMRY
UniProt Q96ME1: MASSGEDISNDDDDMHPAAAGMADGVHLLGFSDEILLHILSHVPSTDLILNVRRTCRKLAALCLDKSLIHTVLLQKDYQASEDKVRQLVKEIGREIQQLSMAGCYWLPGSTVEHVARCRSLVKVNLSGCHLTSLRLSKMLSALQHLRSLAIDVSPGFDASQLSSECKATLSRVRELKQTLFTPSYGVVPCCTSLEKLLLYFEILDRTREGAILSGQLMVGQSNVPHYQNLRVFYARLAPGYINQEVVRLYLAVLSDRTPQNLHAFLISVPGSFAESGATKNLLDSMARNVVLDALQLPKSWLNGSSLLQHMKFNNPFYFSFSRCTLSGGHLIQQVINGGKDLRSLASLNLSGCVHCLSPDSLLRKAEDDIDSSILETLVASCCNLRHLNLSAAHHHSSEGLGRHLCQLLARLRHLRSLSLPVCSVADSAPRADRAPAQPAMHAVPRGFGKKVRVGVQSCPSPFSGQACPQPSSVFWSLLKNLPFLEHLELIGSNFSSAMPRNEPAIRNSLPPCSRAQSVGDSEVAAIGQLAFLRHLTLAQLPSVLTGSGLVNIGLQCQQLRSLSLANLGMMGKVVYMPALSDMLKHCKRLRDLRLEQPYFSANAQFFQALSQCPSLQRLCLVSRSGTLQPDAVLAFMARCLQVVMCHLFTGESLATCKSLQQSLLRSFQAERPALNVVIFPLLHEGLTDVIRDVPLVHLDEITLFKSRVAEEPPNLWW
UniProt A6NHQ2: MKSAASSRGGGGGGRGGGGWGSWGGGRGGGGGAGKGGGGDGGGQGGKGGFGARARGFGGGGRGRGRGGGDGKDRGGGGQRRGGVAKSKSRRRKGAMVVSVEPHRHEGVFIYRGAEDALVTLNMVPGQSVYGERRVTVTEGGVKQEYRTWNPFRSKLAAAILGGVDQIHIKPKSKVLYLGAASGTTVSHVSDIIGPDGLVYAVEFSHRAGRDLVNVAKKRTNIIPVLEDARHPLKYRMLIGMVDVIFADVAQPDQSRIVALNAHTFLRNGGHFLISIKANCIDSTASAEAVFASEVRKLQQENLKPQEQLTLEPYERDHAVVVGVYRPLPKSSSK
UniProt Q9NSD9: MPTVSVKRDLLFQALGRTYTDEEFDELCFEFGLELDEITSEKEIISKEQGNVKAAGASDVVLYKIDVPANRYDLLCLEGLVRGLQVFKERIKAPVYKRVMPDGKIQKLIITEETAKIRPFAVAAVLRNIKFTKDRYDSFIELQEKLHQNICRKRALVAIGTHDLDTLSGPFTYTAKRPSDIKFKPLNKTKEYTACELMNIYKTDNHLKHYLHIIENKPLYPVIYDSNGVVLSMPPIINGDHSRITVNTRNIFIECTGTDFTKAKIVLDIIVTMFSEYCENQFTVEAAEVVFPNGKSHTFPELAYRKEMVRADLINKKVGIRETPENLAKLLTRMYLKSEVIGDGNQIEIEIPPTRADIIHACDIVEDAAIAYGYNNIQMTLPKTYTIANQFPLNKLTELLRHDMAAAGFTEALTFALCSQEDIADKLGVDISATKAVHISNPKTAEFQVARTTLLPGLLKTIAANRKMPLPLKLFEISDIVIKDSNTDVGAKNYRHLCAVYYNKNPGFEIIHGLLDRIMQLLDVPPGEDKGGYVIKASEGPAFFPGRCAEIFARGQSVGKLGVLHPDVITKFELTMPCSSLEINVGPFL
UniProt O75955: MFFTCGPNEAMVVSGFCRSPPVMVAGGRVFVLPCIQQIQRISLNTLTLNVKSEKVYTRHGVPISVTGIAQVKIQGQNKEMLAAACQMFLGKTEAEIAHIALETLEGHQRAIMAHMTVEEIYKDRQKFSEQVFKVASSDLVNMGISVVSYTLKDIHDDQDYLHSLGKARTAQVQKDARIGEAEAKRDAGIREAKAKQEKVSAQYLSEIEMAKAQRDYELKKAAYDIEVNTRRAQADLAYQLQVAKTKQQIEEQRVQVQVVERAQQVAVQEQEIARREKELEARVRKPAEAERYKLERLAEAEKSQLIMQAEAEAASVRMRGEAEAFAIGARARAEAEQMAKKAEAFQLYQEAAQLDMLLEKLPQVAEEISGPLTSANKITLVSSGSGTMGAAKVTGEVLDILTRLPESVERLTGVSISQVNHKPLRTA
UniProt Q9H479: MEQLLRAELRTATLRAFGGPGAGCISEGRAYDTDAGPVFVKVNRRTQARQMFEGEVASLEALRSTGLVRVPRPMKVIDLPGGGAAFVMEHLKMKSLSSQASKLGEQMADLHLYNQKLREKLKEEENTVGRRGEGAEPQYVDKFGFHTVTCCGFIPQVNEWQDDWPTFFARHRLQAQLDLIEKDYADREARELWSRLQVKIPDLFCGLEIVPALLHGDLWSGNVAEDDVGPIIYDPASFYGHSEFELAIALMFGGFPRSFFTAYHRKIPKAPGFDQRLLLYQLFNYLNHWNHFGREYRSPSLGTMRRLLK
UniProt Q9HA64: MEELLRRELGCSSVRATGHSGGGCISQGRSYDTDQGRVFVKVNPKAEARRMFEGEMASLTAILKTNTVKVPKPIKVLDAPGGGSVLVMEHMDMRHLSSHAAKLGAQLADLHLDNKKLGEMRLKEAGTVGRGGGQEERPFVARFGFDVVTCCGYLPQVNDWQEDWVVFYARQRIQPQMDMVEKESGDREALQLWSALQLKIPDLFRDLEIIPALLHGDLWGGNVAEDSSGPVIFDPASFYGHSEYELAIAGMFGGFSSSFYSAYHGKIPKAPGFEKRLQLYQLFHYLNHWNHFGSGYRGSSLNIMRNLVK
UniProt Q13451: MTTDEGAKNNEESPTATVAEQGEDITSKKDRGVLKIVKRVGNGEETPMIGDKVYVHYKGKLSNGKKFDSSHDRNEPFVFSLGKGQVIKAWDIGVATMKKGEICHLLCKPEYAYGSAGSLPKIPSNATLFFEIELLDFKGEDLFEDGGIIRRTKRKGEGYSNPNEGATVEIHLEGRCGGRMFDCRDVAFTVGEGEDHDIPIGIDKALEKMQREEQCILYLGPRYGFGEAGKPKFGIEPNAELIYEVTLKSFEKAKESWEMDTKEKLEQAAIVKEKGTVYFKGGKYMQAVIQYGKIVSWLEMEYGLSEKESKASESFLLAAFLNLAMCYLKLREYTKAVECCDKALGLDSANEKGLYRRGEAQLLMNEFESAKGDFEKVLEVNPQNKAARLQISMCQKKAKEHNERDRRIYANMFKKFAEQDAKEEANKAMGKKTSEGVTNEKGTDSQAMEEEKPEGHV
UniProt Q6P4F2: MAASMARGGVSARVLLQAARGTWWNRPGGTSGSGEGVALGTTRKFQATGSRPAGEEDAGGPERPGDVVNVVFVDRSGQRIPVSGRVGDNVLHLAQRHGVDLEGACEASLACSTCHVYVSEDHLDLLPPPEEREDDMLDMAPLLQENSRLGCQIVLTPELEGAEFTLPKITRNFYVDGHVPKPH

The list shows a part of the results.

Compound in one experiment: CN1C2=C(C3=C1C(=O)N(N=C3)CC4=CC(=CC=C4)N)SC(=C2)S(=O)C
Nature of the experiment: log2 fold change, soluble protein after heating vs DMSO (PISA); higher = thermal stabilisation; K562 cells, 10 uM, 30 min; active = over 0.2 and 3.5 SD of the protein, either way, in both replicates (recomputed). In outline:
(§1)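 Soluble protein was defined as the supernatant after 21,000xg for 90 min. It came from K562 cells at 2×10^6 cells/mL given 10 μM compound for 30 min, heated in aliquots for 3 min across 48°C-58°C, pooled, and extracted in PBS with 0.5% NP-40 at 4°C, and was quantified by TMTpro 16plex LC-MS/MS with equalised channel sums. Thermal stability against control samples, from duplicates, is reported as log2 fold change.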
On to FDX1 (UniProt P10109), for which the log2 fold change is inactive: -0.047.

As to FBXL12 (UniProt Q9NXK8), the log2 fold change was inactive: -0.091.

Take FKBPL (UniProt Q9UIM3): the log2 fold change was inactive: -0.049.

FCGR2C (UniProt P31995): the log2 fold change was inactive: -0.122.

As for FANCB (UniProt Q8NB91), the log2 fold change is inactive: -0.04.

Regarding FIP1L1 (UniProt Q6UN15), the log2 fold change is inactive: 0.094.

Turning to FLVCR1 (UniProt Q9Y5Y0), the log2 fold change was inactive: -0.076.

Consider FAM49B (UniProt Q9NUQ9), for which the log2 fold change is inactive: -0.088.

Regarding FAM210A (UniProt Q96ND0), the log2 fold change is inactive: -0.093.

Consider FBXO30 (UniProt Q8TB52), for which the log2 fold change was inactive: 0.02.

In the case of FKBP2 (UniProt P26885), the log2 fold change is inactive: -0.043.

On to FKBP15 (UniProt Q5T1M5), for which the log2 fold change was inactive: 0.091.

Regarding FAR1 (UniProt Q8WVX9), the log2 fold change was inactive: -0.064.

For FH (UniProt P07954), the log2 fold change is inactive: -0.103.

As for FLII (UniProt Q13045), the log2 fold change was inactive: -0.039.

Regarding FNBP4 isoform 2 (UniProt Q8N3X1), the log2 fold change is inactive: -0.002.

In the case of FAM98B (UniProt Q52LJ0), the log2 fold change is inactive: 0.04.

On to FBXL20 (UniProt Q96IG2), for which the log2 fold change was inactive: -0.024.

FBXL18 isoform 4 (UniProt Q96ME1): the log2 fold change is inactive: -0.045.

For FLYWCH2 (UniProt Q96CP2), the log2 fold change is inactive: 0.003.

In the case of FAM76B (UniProt Q5HYJ3), the log2 fold change is inactive: 0.026.

Consider FASN (UniProt P49327), for which the log2 fold change is inactive: -0.055.

Consider FKBP1A (UniProt P62942), for which the log2 fold change was inactive: -0.158.

As for FBLL1 (UniProt A6NHQ2), the log2 fold change is inactive: 0.346.

With FBXO5 (UniProt Q9UKT4), the log2 fold change was inactive: -0.016.

As for FARSB (UniProt Q9NSD9), the log2 fold change was inactive: -0.031.

FLOT1 (UniProt O75955): the log2 fold change was inactive: 0.33.

Turning to FCSK isoform 2 (UniProt Q8N0W3), the log2 fold change is inactive: -0.023.

Turning to FBXO22 (UniProt Q8NEZ5), the log2 fold change was inactive: 0.063.

As for FN3K (UniProt Q9H479), the log2 fold change was inactive: -0.046.

Turning to FCGR2A (UniProt P12318), the log2 fold change was inactive: -0.176.

On to FN3KRP (UniProt Q9HA64), for which the log2 fold change was inactive: -0.057.

As for FAM98A (UniProt Q8NCA5), the log2 fold change is inactive: 0.279.

Take FKBP9 (UniProt O95302): the log2 fold change is inactive: 0.086.

For FAU (UniProt P62861), the log2 fold change was inactive: 0.308.

In the case of FKBP5 (UniProt Q13451), the log2 fold change was inactive: 0.066.

FDX2 (UniProt Q6P4F2): the log2 fold change was inactive: 0.034.

Consider FAM32A (UniProt Q9Y421), for which the log2 fold change is inactive: 0.174.

Compound in a further experiment: CN1CCC(CNc2ccc3ncc(-c4cccc(OC(F)(F)F)c4)n3n2)CC1
The experiment is described as above. The method, boiled down:
as §1
FDX1 (UniProt P10109): the log2 fold change is inactive: 0.117.

As for FBXL12 (UniProt Q9NXK8), the log2 fold change was inactive: 0.192.

For the target FKBPL (UniProt Q9UIM3), the log2 fold change is inactive: 0.

As to FCGR2C (UniProt P31995), the log2 fold change is inactive: 0.203.

Regarding FANCB (UniProt Q8NB91), the log2 fold change was inactive: 0.089.

On to FIP1L1 (UniProt Q6UN15), for which the log2 fold change is inactive: 0.004.

With FLVCR1 (UniProt Q9Y5Y0), the log2 fold change was inactive: 0.179.

Consider FAM49B (UniProt Q9NUQ9), for which the log2 fold change was inactive: -0.071.

FAM210A (UniProt Q96ND0): the log2 fold change is inactive: -0.044.

As for FBXO30 (UniProt Q8TB52), the log2 fold change is inactive: -0.064.

For the target FKBP2 (UniProt P26885), the log2 fold change is inactive: -0.017.

Turning to FKBP15 (UniProt Q5T1M5), the log2 fold change was inactive: -0.006.

FAR1 (UniProt Q8WVX9): the log2 fold change was inactive: 0.1.

On to FH (UniProt P07954), for which the log2 fold change was inactive: 0.007.

As for FLII (UniProt Q13045), the log2 fold change was inactive: 0.015.

As to FNBP4 isoform 2 (UniProt Q8N3X1), the log2 fold change was inactive: 0.034.

As for FAM98B (UniProt Q52LJ0), the log2 fold change was inactive: 0.045.

As to FBXL20 (UniProt Q96IG2), the log2 fold change was inactive: 0.042.

Take FBXL18 isoform 4 (UniProt Q96ME1): the log2 fold change is inactive: -0.017.

Turning to FLYWCH2 (UniProt Q96CP2), the log2 fold change is inactive: 0.086.

Regarding FAM76B (UniProt Q5HYJ3), the log2 fold change was inactive: 0.244.

For FASN (UniProt P49327), the log2 fold change was inactive: 0.002.

FKBP1A (UniProt P62942): the log2 fold change was inactive: -0.064.

Consider FBLL1 (UniProt A6NHQ2), for which the log2 fold change was inactive: 0.508.

For FBXO5 (UniProt Q9UKT4), the log2 fold change is inactive: -0.031.

As to FARSB (UniProt Q9NSD9), the log2 fold change is inactive: -0.016.

As to FLOT1 (UniProt O75955), the log2 fold change is inactive: 0.433.

With FCSK isoform 2 (UniProt Q8N0W3), the log2 fold change is inactive: 0.003.

FBXO22 (UniProt Q8NEZ5): the log2 fold change was inactive: 0.013.

In the case of FN3K (UniProt Q9H479), the log2 fold change is inactive: 0.07.

Regarding FCGR2A (UniProt P12318), the log2 fold change was inactive: 0.003.

In the case of FN3KRP (UniProt Q9HA64), the log2 fold change is inactive: 0.006.

As for FAM98A (UniProt Q8NCA5), the log2 fold change was inactive: 0.121.

FKBP9 (UniProt O95302): the log2 fold change was inactive: 0.066.

Consider FAU (UniProt P62861), for which the log2 fold change is inactive: 0.198.

With FKBP5 (UniProt Q13451), the log2 fold change is inactive: -0.165.

In the case of FDX2 (UniProt Q6P4F2), the log2 fold change is inactive: 0.113.

Regarding FAM32A (UniProt Q9Y421), the log2 fold change is inactive: 0.13.
